# Source: PubChem BioAssay AID1347423 (Functional Genomics Laboratory (NCATS/FGL), 2020)
# The campaign covered roughly 52,000 sequences. About 210 (0.4%) were called active.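 How the source made its calls: active means gene whose silencing raises cell survival under the drug, median off-target-corrected z-score across its silencing RNAs 2 or more; inactive means the rest.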 The list shows a part of the results.
# Test: Resistance to Poly (ADP-Ribose) Polymerase inhibitor: Gene Identification via Genome-wide siRNA Screen
# Settings: mouse BRCA2 R2336H ES cells, olaparib, CellTiter-Glo viability; stronger effect = higher value
# Outline: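 Genome-wide siRNA screen (3 siRNAs/gene, 20 nM) in mouse ES cells carrying hypomorphic BRCA2 R2336H; olaparib 500 nM added 48 h post-transfection, CellTiter-Glo viability 72 h later. Normalized to plate-median negative control; MAD z-scores, gene median, seed-adjusted.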
row,Sequence,z-score
1,GGAGAUGGCUAUAUUCUGATT against Lip1,inactive: 1.07
2,GGAAGUUCAUCAUGAUAUCTT against Cxadr,inactive: 1.63
3,GGUUCUUAUCUCUAUUCAGTT against Olfr1270,inactive: 0.79
4,GCAGCAGAACUUUUUUGCCTT against Hif1an,inactive: 0.205
5,GCGAUCCAGGAGCUAUCAATT against Helb,inactive: 0.0707
6,CCCAACUGUUCAGAAAAUATT against Olfr1212,inactive: -1.22
7,GGUCAAUUGGAAAUAAGAATT against Hiat1,inactive: 0.936
8,GCUAACAGCAUCCUUUUUGTT against V1rb1,inactive: -0.693
9,GGAAGAACAGGAUUGUGAATT against Gpr156,inactive: -0.393
10,GGAUUUAGAUUUUUCCCUCTT against Alox12e,inactive: 1
11,CCCACCAAUGUCAGCGUGUTT against LOC238447,inactive: -0.707
12,GGCCUUCGUUGAAUUCUUGTT against C1qbp,inactive: -0.386
13,GCAAGAAACACGGAGGUGATT against Olfr1231,inactive: -1.17
14,GCAAGCUAGAGAAAAUCAGTT against Serpinb3b,inactive: 0.33
15,GAUGAAAUCUAAAGAUGGGTT against Olfr178,inactive: -0.278
16,GCAAUAGGCUUUUAUUGUCTT against 5930422O12Rik,inactive: -0.25
17,GGAGACCUUCCAGAACACATT against Mesdc2,inactive: 0.846
18,GGUGUCAUAGACAUGAAAATT against Armc8,inactive: -0.358
19,CGCUACGUCCAGUAUCACCTT against 3110005G23Rik,inactive: 0.233
20,GGUCCAUACAAGUGUUUGATT against Camk2b,inactive: -0.885
21,GCAAGCCCAUUGAUCAGAGTT against 5930416I19Rik,inactive: 0.603
22,GGGUUUUUUUUUCCUUGAATT against 2410004J23Rik,inactive: -0.0707

row,Sequence,z-score
1,GGUGAAUUUUCAGUUGAUATT against 1200009K13Rik,inactive: -1.29
2,GGUGAAGAAAGCACUAGUUTT against Olfr979,inactive: -0.324
3,GCCCAAGACGAAAAGAUACTT against Mrpl9,inactive: 1.87
4,GCGUGGGAGACAAAUGAAATT against Sstr5,inactive: 2.49
5,GCUUUCUACUAAGCCUGCUTT against 9630018L10Rik,inactive: -0.361
6,GGCAAUGUGCCCAAUAUCATT against Rfc2,inactive: -2.4
7,GGAGAAGUUGUUCAGGGAATT against Brms1,inactive: -0.965
8,GGUGAGAAGCCUUACCUCUTT against C130032F08Rik,inactive: -1.36
9,GGGAGCCAGGAGAAGUUGUTT against Spin,inactive: -0.374
10,GCCUGUUCUAUGUUACUGGTT against Olfr320,inactive: 0.626
11,GCAUCAAGAGAUCUGAUUATT against Ris2,inactive: -2.29
12,CCGGAGCUUUAUUGACACGTT against Rbm19,inactive: -1.51
13,GGAUUCUUUCAGGGUCUAATT against Olfr658,inactive: -0.74
14,CCGUUGUUCAUAAUUGUGATT against 2610528K11Rik,inactive: 0.556
15,CCCAGCGCACUUACAUGUCTT against Gpaa1,inactive: 0.859
16,GGCAACUCAUGAACUCUCGTT against BC027057,inactive: 0.96
17,GGCACGAGGCAGAAUUUUATT against Kctd3,inactive: 1.94
18,GGCAUCAAUAGGAAGAUGCTT against Rgs19,inactive: 0.116
19,GGCUCCAAAGUUUGUGCUGTT against Grin3b,inactive: -1.3
20,GGGAAAAGAUGUUUCUAUCTT against Ifi44,inactive: -0.106
21,GCAAUACGAAGGCGAAAGCTT against 1110036O03Rik,inactive: 0.85
22,GCUAAUCGAAGUUGAAAUUTT against 6330407J23Rik,inactive: 0.467

# Copied from above for reference:
row,Sequence,z-score
4,GCAGCAGAACUUUUUUGCCTT against Hif1an,inactive: 0.205
5,GCGAUCCAGGAGCUAUCAATT against Helb,inactive: 0.0707
6,CCCAACUGUUCAGAAAAUATT against Olfr1212,inactive: -1.22
7,GGUCAAUUGGAAAUAAGAATT against Hiat1,inactive: 0.936
8,GCUAACAGCAUCCUUUUUGTT against V1rb1,inactive: -0.693
9,GGAAGAACAGGAUUGUGAATT against Gpr156,inactive: -0.393
10,GGAUUUAGAUUUUUCCCUCTT against Alox12e,inactive: 1
11,CCCACCAAUGUCAGCGUGUTT against LOC238447,inactive: -0.707
12,GGCCUUCGUUGAAUUCUUGTT against C1qbp,inactive: -0.386
13,GCAAGAAACACGGAGGUGATT against Olfr1231,inactive: -1.17
14,GCAAGCUAGAGAAAAUCAGTT against Serpinb3b,inactive: 0.33
15,GAUGAAAUCUAAAGAUGGGTT against Olfr178,inactive: -0.278
16,GCAAUAGGCUUUUAUUGUCTT against 5930422O12Rik,inactive: -0.25

# Following part.

row,Sequence,z-score
1,CCAAAUUGUCUCUUCUAACTT against Dnahc1,inactive: 1.74
2,GGAUGUUUGCUAGCUUCCCTT against Hba-a1,inactive: 0.96
3,GCUGAAUCAUUGAUUUACCTT against 1300007B12Rik,inactive: 0.237
4,GCUCAGCUUAUGACCACGUTT against Mapk3,inactive: 0.0455
5,GGAUAUCAAGGGAUCAGACTT against Chchd4,inactive: 1.51
6,GGGAUAUCUAAUCAAAACCTT against Siat8e,inactive: 1.13
7,GGGCCAGAGUCAGAAAAGGTT against Ebp,inactive: 0.491
8,GGCGUGAAGAAUUUGUCAATT against Prc1,inactive: 0.225
9,GGGCAUGGCUGUCUUACUCTT against 1500001H12Rik,inactive: 0.783
10,GGUGCUGAAGCUACGCUAUTT against Wnt9b,inactive: -0.558
11,GGCCAUGGAAAAAUCUCAGTT against Dtna,inactive: 0.772
12,GGUAGAAUUCAAUGUAUCATT against Arhgap17,inactive: -0.118
13,CCUCUUAUUCAGAAUGUCCTT against Bnc2,inactive: -0.513
14,GGUCAGACUUGAUUAUUUGTT against F830104G03Rik,inactive: 1.2
15,CGAAAAGGUGGACUUUUAGTT against Rnf4,inactive: 0.895
16,GCCAACCUUAGGAGACAUCTT against Zfp40,inactive: -0.0946
17,GGAUAAUUCACAGUUCAAATT against Tlk1,inactive: 0.479
18,GGGUCUAAGGGUUCCGUUATT against 1300007F04Rik,inactive: -0.506
19,GGAUUUGAGCGAUAUGAGCTT against Tex12,inactive: -0.669
20,GGUACUCGGAUUUGAUUAATT against Myo6,inactive: 0.399
21,GGAUGUCCGGAAGAUGUUUTT against Tnrc4,inactive: -0.279
22,GGCUCACAAUAUUGUAUACTT against Ndufa5,inactive: -0.425
